The source of these data is patent US6600015B2 (Hoffmann-La Roche Inc., priority 2000, dated 2003).

A short description of the series: general procedure: Fmoc solid-phase peptide synthesis; Fmoc-Linker-BHA resin (Rink linker on benzhydrylamine resin); Wang resin; HBTU and DIC preferred, HOBT additive; HBTU/DIPEA in DMF. The conditions noted are these: whole synthesis, scale 0.2 mmol.

Regarding Bu-His-(D)Phe-Arg-Trp-Gly-NH2, the crude mass was determined as 130 mg, the isolated mass came to 52 mg and the isolated yield is 34%.
